Test results reported in US7015309B1 (The Wistar Institute of Anatomy and Biology, priority 1999, dated 2006).
Not every detail of the peptide structures is certain; ends, links or a residue may be inferred. At least one structure is not confirmed: it was looked up by name or label, or the drawing left a doubt. Non-standard residues stand in square brackets, D forms with d. Residues, ends and D or L forms follow the SMILES beside them. ξ: configuration not given here. Ac6c = NC1(C(=O)O)CCCCC1; ξDap = NCC(N)C(=O)O

Tests used:
[1] = tested on: Salmonella typhimurium; settings: read-out: IC50 in μM against Salmonella typhimurium; 30° C., 24 hours; for Peptide 22 original assay (a)
Method: (§1) Growth inhibition assays were performed using the peptides of Example 1 and the Gram positive microorganisms Micrococcus luteus and Bacillus megaterium, and the Gram negative microorganisms, Escherichia coli D22, Agrobacterium tumefaciens, and Salmonella typhimurium. Anti-bacterial assays were performed in sterilized 96-well plates (Nunc F96 microtiter plates) with a final volume of 100 μl as described in Bulet (1996), cited above. Briefly, 90 μl of a suspension of a midlogarithmic phase bacterial culture at an initial 600 nm UV absorbence of 0.001 in Luria-Bertani rich nutrient medium was added to 10 μl of serially diluted peptides in sterilized water. The final peptide concentrations ranged between 0.15 and 80 μM. The plates were incubated at 30° C. for 24 hours with gentle shaking, and the growth inhibition was measured by recording the increase of the UV absorbence at 600 nm on an SLT Labinstruments 400 ATC microplate reader. The experiments were conducted over a 7-month period.

[2] = tested on: Agrobacterium tumefaciens; settings: read-out: IC50 in μM against Agrobacterium tumefaciens; 30° C., 24 hours; for Peptide 22 original assay (a)
Method: as §1

## CC[C@H](C)[C@H](NC(=O)[C@@H]1CCCN1C(=O)[C@H](CCCNC(=N)N)NC(=O)[C@@H]1CCCN1C(=O)[C@@H]1CCCN1C(=O)[C@@H](NC(=O)[C@@H]1CCCN1C(=O)[C@H](CCCNC(=N)N)NC(=O)[C@@H]1CCCN1C(=O)[C@H](CC(C)C)NC(=O)[C@H](Cc1ccccc1)NC(=O)[C@H](C)NC(=O)CNC(=O)[C@H](CCCCN)NC(=O)[C@H](CC(=O)O)NC(=O)C1(N)CCCCC1)[C@@H](C)O)C(=O)N[C@@H](Cc1ccc(O)cc1)C(=O)N[C@@H](CC(N)=O)C(=O)N[C@@H](CCCNC(=N)N)C(=O)NC(CNC(C)=O)C(N)=O (some centres unmarked) [Peptide 23] (H-[Ac6c]DKGAFLPRPTPPRPIYNR[ξDap](Ac)-NH2)
[1]
  IC50: > 80 µM
[2]
  IC50: > 80 µM
